# In patent US20160362472A1 (published 2016):
# Sequences of proteins named here, by UniProt entry; tags and fusion partners are left off. Residues count along the entry.
# UniProt P20273, residues 20-687: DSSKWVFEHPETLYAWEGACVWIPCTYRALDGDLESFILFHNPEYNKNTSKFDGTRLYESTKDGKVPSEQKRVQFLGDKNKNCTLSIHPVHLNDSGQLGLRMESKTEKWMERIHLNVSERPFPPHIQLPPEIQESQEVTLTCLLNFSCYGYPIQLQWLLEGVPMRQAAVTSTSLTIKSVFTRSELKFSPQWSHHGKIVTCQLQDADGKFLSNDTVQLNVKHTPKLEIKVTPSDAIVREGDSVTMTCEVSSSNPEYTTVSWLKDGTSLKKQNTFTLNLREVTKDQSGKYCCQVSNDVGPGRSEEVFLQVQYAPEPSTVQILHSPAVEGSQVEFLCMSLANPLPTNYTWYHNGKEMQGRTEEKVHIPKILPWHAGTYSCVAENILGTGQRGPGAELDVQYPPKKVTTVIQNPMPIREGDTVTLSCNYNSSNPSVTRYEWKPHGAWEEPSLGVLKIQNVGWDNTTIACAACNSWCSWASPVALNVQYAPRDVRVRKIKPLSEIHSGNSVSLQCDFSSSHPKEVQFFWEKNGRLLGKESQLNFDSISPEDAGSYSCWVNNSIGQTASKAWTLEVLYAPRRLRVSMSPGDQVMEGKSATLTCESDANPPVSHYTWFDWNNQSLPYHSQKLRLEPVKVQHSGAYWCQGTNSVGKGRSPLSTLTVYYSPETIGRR
# These are yes or no findings as the source states them, for the method shown. Some binding calls cover weakened binding; strength is not graded here.
# Biological target: CD22 target antigen coated on plate (UniProt P20273)
# Experiment: NFAT-luciferase activation of CAR JNL cells on CD22-coated plate
row,binding,Binder
1,binds,"CAR22-12 (scFv, scFv domain of a CAR on T cells or JNL cells; also called CD22 CAR clone 12; hCD22-12) scFv: EVQLQQSGPGLVKPSQTLSLTCAISGDSVLSNSDTWNWIRQSPSRGLEWLGRTYHRSTWYDDYASSVRGRVSINVDTSKNQYSLQLNAVTPEDTGVYYCARDRLQDGNSWSDAFDVWGQGTMVTVSSGGGGSGGGGSGGGGSQSALTQPASASGSPGQSVTISCTGTSSDVGGYNYVSWYQQHPGKAPKLMIYDVSNRPSGVSNRFSGSKSGNTASLTISGLQAEDEADYYCSSYTSSSTLYVFGTGTQLTVL"
2,binds,"CAR22-53 (scFv, scFv domain of a CAR on JNL cells or T cells; also called CD22-53; hCD22-53) scFv: EVQLQQSGPGLVKPSQTLSLTCAISGDSVSSNSAAWNWIRQSPSRGLEWLGRTYYRSKWYSDYAVSVKSRITINPDTSKNQFSLQLNSVTPEDTAVYYCARDPYDFWSGYPDAFDIWGQGTMVTVSSGGGGSGGGGSGGGGSQSALTQPASVSGSPGQSITISCTGTSSDVGGYNYVSWYQQHPGKAPKVIISEVNNRPSGVSHRFSGSKSGNTASLTISGLQAEDEADYFCSSYTSGRTLYVFGTGSKVTVLG"
